In patent publication EP0600866B1, “COMPOSITIONS AND METHODS FOR IDENTIFYING BIOLOGICALLY ACTIVE MOLECULES” (CHIRON CORPORATION, priority 1990, dated 1997):
Not every detail of the peptide structures is certain; ends, links or a residue may be inferred. No end group written: not given here.

Tested on: monoclonal antibody to feline leukemia virus
Assay: λ gt11 plaque filter screening of the λ phage random peptide library with a monoclonal antibody, with peptide competition
Format: binding
Settings: filters and antibodies co-incubated with peptide; 25 µg/ml for QAMGPNLVL

QAMGPNLVL [QAMGPNLVL] was tested, and the “effect on antibody binding to the filters” value was “greatly reduced”.
